Results from publication PMC10163288.
Some of the results follow.

B1: il2ra_site1_1z92_normal_mot_HHH_b2_04985_000000147_0001_1_19_H_._HHH_b1_01979_0001_0000100006_0000001_0_af2pred_0001_af2pred_swapped (protein)
chain: SSSSSKLEKNAEYVVELAVKLAGLDEEEKRQLEEVARELVERGLSFREINKELDRVANELSSSSS
B2: il2ra_site1_3nfp_normal_mot_HHH_b1_07440_af2_000000231_0001_1_19_H_._HHH_b1_08742_af2_0001_0000200019_0000001_0_af2pred_0001_af2pred_1_swapped (protein)
chain: SSSSSEKAEELFEEARELIEELLERGDPREASRVVEEAARRLFRLGNPELAEELLEYARRSSSSS
B3: il2ra_site2_3nfp_sap_22_mot_HHH_b1_07242_000000112_0001_19_39_H_._dbaaacb3030748eb94c4e142aa50db7a_0001_0001_0000400037_0000001_0_0001_af2pred_0001_af2pred (protein)
chain: SSSDEEERIRELLKEIEELLKEGNDEEAEELLEEARKLIRELGDIELLVELLELRELVEEKSSSS
B4: il2ra_site1_3nfp_sap_6_mot_58e3eb3031e6d57439b1b965989c2868_0001_af2_000000159_0001_19_34_H_._8a6a1400aecb8ca28daff083fb65bf78_0001_1_af2_0001_0000300017_000000 … (protein)
chain: SSSSDEELQELAREIDKAFKNGDREKAEELIEKAEELAEELGDPDARKQLKYLLEALRRSKSSSS
B5: il2ra_site2_2erj_normal_mot_HHH_b2_07139_000000086_0001_40_57_H_._HHH_b2_03810_af2_0001_0001000014_0000001_0 (protein)
chain: SSSSDDEKEVRELLEEAEEAWKEGDLELVFELLSRALHVASQSQDPELQELVIEFFEELTSSSSS
B6: il2ra_site2_3nfp_sap_19_mot_HHH_eva_0376_af2_000000005_0001_25_42_H_._9a8b2cb7a75b34899a74317597b2dbd0_0001_1_0001_0000500026_0000001_0_0001 (protein)
chain: SSSSDVEELLERVKELIEEGDLSEAAHVLMEAAERVRELNDPELFKKLLELYEELAREYRSSSSS
B7: il2ra_site1_2b5i_normal_mot_HHH_b1_02271_000000068_0001_1_16_H_._HHH_b1_03521_af2_0001_0000500042_0000001_0_af2pred_dldesign_0_af2pred (protein)
chain: SSSSSAKRAEIERLVAEAERLKKEGKRREALELLEEAYKLADELGDEELADELEERAKKISSSSS
B8: il2ra_site2_2erj_normal_mot_76e6e8f7232a9e65eeaab5ff8ecb4c96_0001_000000231_0001_17_31_H_._HHH_b2_04542_0001_0000300016_0000001_0 (protein)
chain: SSSSSELEERVQELLEEARKLLENGNPEEAASAVIEAAALAVRNRDPELEKEVRELFTEIYSSSS
B9: il2ra_site1_3nfp_normal_mot_HHH_b2_01814_000000033_0001_1_16_H_._HHH_b1_05657_0001_0000200019_0000001_0_af2pred_0001_af2pred_1_swapped (protein)
chain: SSSSTEESRRARELIRRISELIREGNPEEAEELLEELEELARERGSRAAELFVRRLRRHLSSSSS
B10: il2ra_site1_2b5i_sap_10_mot_HHH_b1_02271_000000068_0001_1_16_H_._HHH_b2_04442_af2_0001_0000300031_0000001_0_0001 (protein)
chain: SSSDEDHELTRFAVRVVWQLMVRLGLSAEQAHELNKLAVELVDEGYSEEEIEKILRELAEELSSS
B11: il2ra_site1_3nfp_sap_10_mot_07104d7dbe42e49ee5b1eb09eb0325d4_0001_1_000000060_0001_1_15_H_._a3670c5829215c526ff869221da29923_0001_af2_0001_0000200004_0000001_0_ … (protein)
chain: SSSSDVRKEFQRLVRELRKLNKEGDKERARELLEELERIVEEVNDEIAKRLLRQLEEAVESSSSS
B12: il2ra_site1_1z92_sap_10_mot_HHH_b2_00249_af2_000000052_0001_39_52_H_._HHH_b2_00694_af2_0001_0000200005_0000001_0_0001 (protein)
chain: SSSSDEEELEELAELVMEAMRKWDRELLEHLLELLEELIKKTGDPSARRVLEELEEYLKMLSSSS
B13: il2ra_site1_3nfp_normal_mot_HHH_b1_05931_000000015_0001_42_57_H_._c0fd2ee23bf7eac90f0defb3b9babf8d_0001_0001_0000300012_0000001_0_af2pred_0001_af2pred_1_swapped (protein)
chain: SEASRIFKEVSRRGLLSPEAVQAIFELARRIVRKGDPELLRLYREIIELLKRNVEEAEELAEKLR
B14: il2ra_site2_3nfp_normal_mot_HHH_b2_05976_000000001_0001_22_38_H_._HHH_b2_06395_0002_0000200077_0000001_0 (protein)
chain: SSSDEEEVEKLLRQAEEKLEEGNPEEARRLLQEAALLAAELRNHEAFALVLEVLARFIQANSSSS
B15: il2ra_site1_3nfp_sap_14_mot_HHH_b2_07180_000000236_0001_22_38_H_._1ea06dbd6b6845823c0bc83f2773458f_0001_1_af2_0001_0000300013_0000001_0_0001 (protein)
chain: DADEYLVEVALRDANGNPELAVEWLERVAEQTGVPPEALERAVEEVLEKTGDPLVELILELLKRK
B16: il2ra_site2_3nfp_normal_mot_HHH_b1_01086_af2_000000264_0001_39_53_H_._HHH_b1_01084_0001_0000100005_0000001_1_af2pred_0001_af2pred (protein)
chain: SSSSSSSEEEVERLLEEAERVDEEERLHLLAQAVIVAMEANDPELLELVEKASRELQGSSSSSSS
B17: il2ra_site1_1z92_sap_14_mot_HHH_b1_04602_000000153_0001_1_19_H_._HHH_b1_00430_0001_0000200020_0000001_0_0001_af2pred_0001_af2pred (protein)
chain: SSSSSEEVSRFLLEQAERAFELNNEKLLKRLLEMIEKAVEEEGDPAFEEALKKVEKLLRELSSSS
B18: il2ra_site1_1z92_sap_16_mot_e13e5361d6bfe40ac0affc314a60e3b1_0001_af2_000000276_0001_36_50_H_._HHH_b1_08148_0001_0000100003_0000001_0_0001_af2pred_0001_af2pred_ … (protein)
chain: DLERAVRKFAEVAAKLAGVPSVEVELRNNEIHVTVEGNEEASETLERLIRAAARLLGVPVTVETE
B19: il2ra_site1_3nfp_sap_18_mot_HHH_b2_03135_af2_000000097_0001_42_55_H_._HHH_b2_05121_0001_0000400027_0000001_0_0001_af2pred_0001_af2pred_1 (protein)
chain: SLEEAEEELVKIAVRLNNPKLLRKILRAAEVFFGNPEEAEEFLHEAIEKVLGDPEEAERLVREAK

Each binder was assayed against il2ra, P01589 (assay: yeast display titration).

Apparent Kd, inactive:
B1 no binding seen, B2 no binding seen, B3 no binding seen, B4 no binding seen, B5 no binding seen, B6 no binding seen, B7 no binding seen, B8 no binding seen, B9 no binding seen, B10 no binding seen, B11 no binding seen, B12 no binding seen, B13 no binding seen, B14 no binding seen, B15 no binding seen, B16 no binding seen, B17 no binding seen, B18 no binding seen, B19 no binding seen
